In PubChem BioAssay AID248 (DTP/NCI, 2004):
The list shows only some results of the screen, not a fair sample: it is rich in T/C values a quarter to a half above the control, in often repeated tests (any T/C) and in doses without a T/C. Further doses and runs are listed elsewhere. T/C gives the treated animals as a percentage of the vehicle group. Some doses have a count of surviving animals in place of a T/C: the source holds a T/C of zero for them, seemingly a mark for toxic or unscored doses. Some survivor counts are full or nearly so, which does not show that the dose was tolerated: survival well below the control is almost never listed, so the zero probably covers shortened survival too. Counts of survivors are from the toxicity check (mostly the fifth day) where no day follows; animals may have died later. Schedule codes are those of the source, taken here to give the interval after Q, in days (D) or hours (H), and the number of doses after X. Some schedules carry Z or #; the key to these is not given. For survival time, the PubChem record calls one and a half times the control and up active, and a quarter to a half above the control has no call in these data; cut-offs in other NCI protocols can differ. Some T/C values carry the count of animals alive at the toxicity check (mostly the fifth day); where none is given, no animal had died by that day. Some entries hold several experiments; the values are given in rising order.

Tested on: L1210 leukemia ip in BDF1 mice, survival T/C
Test: NCI In Vivo Anticancer Drug Screen. Data for tumor model L1210 Leukemia (intraperitoneal) in B6D2F1 (BDF1) mice
Settings: T/C endpoint: mean survival time, higher T/C = longer survival
[1] = dose: 200.0 mg/kg/injection, schedule: Q01DX009 (ip), vehicle: Klucel (hydroxypropylcellulose) (HPC)
[2] = dose: 400.0 mg/kg/injection, schedule: Q01DX009 (ip), vehicle: Klucel (hydroxypropylcellulose) (HPC)
[3] = dose: 200.0 mg/kg/injection, schedule: Q04DX003 (ip), vehicle: Klucel (hydroxypropylcellulose) (HPC)
[4] = dose: 400.0 mg/kg/injection, schedule: Q04DX003 (ip), vehicle: Klucel (hydroxypropylcellulose) (HPC)
[5] = dose: 200.0 mg/kg/injection, schedule: Q04DX003 (ip), vehicle: saline
[6] = dose: 400.0 mg/kg/injection, schedule: Q04DX003 (ip), vehicle: saline
[7] = dose: 200.0 mg/kg/injection, schedule: Q01DX001 (ip), vehicle: saline
[8] = dose: 400.0 mg/kg/injection, schedule: Q01DX001 (ip), vehicle: saline
[9] = dose: 80.0 mg/kg/injection, schedule: Q01DX001 (ip), vehicle: saline
[10] = dose: 400.0 mg/kg/injection, schedule: Q04DX002 (ip), vehicle: saline with Tween-80

## Cc1ccc(Nc2nc(N)nc(N)c2N=O)cc1
dose: 100.0 mg/kg/injection, schedule: Q01DX Z (ip), vehicle: methylcellulose (MC)
  survivor count: 1 of 6
dose: 200.0 mg/kg/injection, schedule: Q01DX Z (ip), vehicle: methylcellulose (MC)
  survivor count: 4 of 6

## CC1CN=C(c2cccc(NC(=O)c3ccc(C(=O)Nc4cccc(C5=NCC(C)N5)c4)c(N)c3)c2)N1 (centres undefined)
dose: 5.0 mg/kg/injection, schedule: Q01DX Z (ip), vehicle: water
  survivor count: 3 of 6
dose: 10.0 mg/kg/injection, schedule: Q01DX Z (ip), vehicle: water
  survivor count: 0 of 6

## COc1c(O)cc2oc3cc(O)c(CC=C(C)C)c(O)c3c(=O)c2c1CC=C(C)C
[1]
  survivor count: 6 of 6
[2]
  survivor count: 6 of 6

## NC(N)=N/N=C/C(Cl)(Cl)Cl
dose: 120.0 mg/kg/injection, schedule: Q01DX Z (ip), vehicle: saline
  T/C: 128 % of control

## COC1(c2ccc([N+](=O)[O-])o2)OC1(C)C (centres undefined)
dose: 400.0 mg/kg/injection, schedule: Q01DX009 (ip), vehicle: saline with Tween-80
  survivor count: 1 of 6

## COc1ccc(CN=C(N)CSS(=O)(=O)O)cc1
dose: 50.0 mg/kg/injection, schedule: Q04DX002 (ip), vehicle: Klucel (hydroxypropylcellulose) (HPC)
  survivor count: 0 of 3

## OC(CCN1CCCCC1)(c1ccccc1)C1CC2C=CC1C2 (centres undefined)
[1]
  survivor count: 0 of 6
[3]
  survivor count: 3 of 4
[2]
  survivor count: 0 of 6
[4]
  survivor count: 0 of 4

## CSC(N)=Nc1ccccc1
dose: 350.0 mg/kg/injection, schedule: Q01DX009 (ip), vehicle: saline
  survivor count: 0 of 6

## CC(=O)NC1CCCC(OC(C)=O)C1 (centres undefined)
dose: 200.0 mg/kg/injection, schedule: Q01DX009 (ip), vehicle: saline with Tween-80
  survivor count: 2 of 3

## O=C1C=CC(=O)C1
dose: 9.0 mg/kg/injection, schedule: Q01DX009 (ip), vehicle: saline
  survivor count: 0 of 6
dose: 12.5 mg/kg/injection, schedule: Q04DX003 (ip), vehicle: saline
  survivor count: 0 of 6
dose: 25.0 mg/kg/injection, schedule: Q04DX003 (ip), vehicle: saline
  survivor count: 0 of 6
dose: 50.0 mg/kg/injection, schedule: Q04DX003 (ip), vehicle: saline
  survivor count: 0 of 6
dose: 100.0 mg/kg/injection, schedule: Q04DX003 (ip), vehicle: saline
  survivor count: 0 of 6
[5]
  survivor count: 0 of 6
[6]
  survivor count: 0 of 6

## CC(=O)Nc1ccc(S(=O)(=O)F)cc1C
[2]
  survivor count: 1 of 6

## Cc1nc(C(=O)NN)co1
[7]
  survivor count: 0 of 4
[8]
  survivor count: 0 of 4

## O=C(O)c1cc(=O)cc(C(=O)O)o1
dose: 200.0 mg/kg/injection, schedule: Q04DX003 (ip), vehicle: saline with Tween-80
  survivor count: 2 of 6
dose: 400.0 mg/kg/injection, schedule: Q04DX003 (ip), vehicle: saline with Tween-80
  survivor count: 1 of 6

## N=C(N=Nc1c(O)[nH]c2ccccc12)N[N+](=O)[O-]
dose: 50.0 mg/kg/injection, schedule: Q04DX003 (ip), vehicle: Klucel (hydroxypropylcellulose) (HPC)
  survivor count: 3 of 6
dose: 100.0 mg/kg/injection, schedule: Q04DX003 (ip), vehicle: Klucel (hydroxypropylcellulose) (HPC)
  survivor count: 1 of 6
[3]
  survivor count: 2 of 6
[4]
  survivor count: 0 of 6

## CCCCNC(=S)NCCCC
[2]
  survivor count: 0 of 6
dose: 400.0 mg/kg/injection, schedule: Q04DX002 (ip), vehicle: Klucel (hydroxypropylcellulose) (HPC)
  survivor count: 1 of 3

## CSc1ncnc2c1ncn2C1CCCC1
dose: 400.0 mg/kg/injection, schedule: Q01DX001 (ip), vehicle: carboxymethylcellulose (CMC)
  survivor count: 0 of 4

## CC1(C)OC2C(CNCCO)OC(OCc3ccccc3)C2O1 (centres undefined)
[6]
  survivor count: 0 of 6

## COc1ccc(N2C(=O)C3C(C2=O)C2c4ccccc4C3C3CCCCN32)cc1 (centres undefined)
dose: 150.0 mg/kg/injection, schedule: Q01DX001 (ip), vehicle: other
  survivor count: 1 of 6
dose: 300.0 mg/kg/injection, schedule: Q01DX001 (ip), vehicle: other
  survivor count: 0 of 6

## CC[P+](C)(CC)c1cccc(OC(=O)NC)c1
dose: 0.5 mg/kg/injection, schedule: Q01DX001 (ip), vehicle: saline
  survivor count: 0 of 6
dose: 1.0 mg/kg/injection, schedule: Q01DX001 (ip), vehicle: saline
  survivor count: 0 of 6
dose: 2.0 mg/kg/injection, schedule: Q01DX001 (ip), vehicle: saline
  survivor count: 0 of 6
dose: 4.0 mg/kg/injection, schedule: Q01DX001 (ip), vehicle: saline
  survivor count: 0 of 6
dose: 5.0 mg/kg/injection, schedule: Q01DX001 (ip), vehicle: saline
  survivor count: 0 of 6
dose: 8.0 mg/kg/injection, schedule: Q01DX001 (ip), vehicle: saline
  survivor count: 0 of 6
dose: 10.0 mg/kg/injection, schedule: Q01DX001 (ip), vehicle: saline
  survivor count: 0 of 6
dose: 20.0 mg/kg/injection, schedule: Q01DX001 (ip), vehicle: saline
  survivor count: 0 of 6
dose: 40.0 mg/kg/injection, schedule: Q01DX001 (ip), vehicle: saline
  survivor count: 0 of 6
dose: 75.0 mg/kg/injection, schedule: Q01DX001 (ip), vehicle: saline
  survivor count: 0 of 6
[9]
  survivor count: 0 of 6
dose: 150.0 mg/kg/injection, schedule: Q01DX001 (ip), vehicle: saline
  survivor count: 0 of 6
dose: 300.0 mg/kg/injection, schedule: Q01DX001 (ip), vehicle: saline
  survivor count: 0 of 6

## C/C=N/N(C)C=O
[6]
  survivor count: 1 of 4

## O=C1C=CC(=O)N1c1ccc2c(c1)OCO2
dose: 25.0 mg/kg/injection, schedule: Q04DX002 (ip), vehicle: saline with Tween-80
  survivor count: 0 of 3
dose: 50.0 mg/kg/injection, schedule: Q04DX002 (ip), vehicle: saline with Tween-80
  survivor count: 0 of 3
dose: 100.0 mg/kg/injection, schedule: Q04DX002 (ip), vehicle: saline with Tween-80
  survivor count: 0 of 3
dose: 200.0 mg/kg/injection, schedule: Q04DX002 (ip), vehicle: saline with Tween-80
  survivor count: 0 of 3
[10]
  survivor count: 0 of 3

## Cc1ccc(NC(=O)c2ccccc2Cl)cc1Cl
[5]
  T/C: 125 % of control

## Cc1cccnc1N
[10]
  survivor count: 0 of 3

## CC(C)c1ccc(/C=C(\C(=O)O)c2cccc3ccccc23)cc1
[1]
  survivor count: 5 of 6
[2]
  survivor count: 2 of 6

## O/N=C/c1ccc2ccccc2n1
dose: 150.0 mg/kg/injection, schedule: Q04DX003 (ip), vehicle: Klucel (hydroxypropylcellulose) (HPC)
  survivor count: 0 of 6
dose: 300.0 mg/kg/injection, schedule: Q04DX003 (ip), vehicle: Klucel (hydroxypropylcellulose) (HPC)
  survivor count: 0 of 6

## O=C(O)c1ccccc1N=Cc1ccccc1O.[Co]
dose: 400.0 mg/kg/injection, schedule: Q01DX001 (ip), vehicle: other
  survivor count: 0 of 6

## CCOC(=O)C(CC)(OO)c1ccncc1Br (centres undefined)
dose: 200.0 mg/kg/injection, schedule: Q01DX001 (ip), vehicle: Klucel (hydroxypropylcellulose) (HPC)
  survivor count: 1 of 6
dose: 400.0 mg/kg/injection, schedule: Q01DX001 (ip), vehicle: Klucel (hydroxypropylcellulose) (HPC)
  survivor count: 0 of 6

## NNc1ncnc2c1ccn2C1OC(CO)C(O)C1O (centres undefined)
dose: 12.5 mg/kg/injection, schedule: Q01DX005 (ip), vehicle: saline
  T/C: 128 and 134 % of control
dose: 25.0 mg/kg/injection, schedule: Q01DX005 (ip), vehicle: saline
  T/C: 127 and 142 % of control
dose: 50.0 mg/kg/injection, schedule: Q01DX005 (ip), vehicle: saline
  T/C: 136 and 143 % of control [4 of 6 alive]
[9]
  T/C: 127 % of control
dose: 100.0 mg/kg/injection, schedule: Q01DX005 (ip), vehicle: saline
  survivor count: 1 of 6
dose: 120.0 mg/kg/injection, schedule: Q01DX001 (ip), vehicle: saline
  survivor count: 3 of 6
[7]
  survivor count: 0 of 6
dose: 200.0 mg/kg/injection, schedule: Q01DX005 (ip), vehicle: saline
  survivor count: 0 of 6
[8]
  survivor count: 0 of 6
